Results are given in words; binding and its absence hold for the method and conditions named. Some binding calls cover weakened binding; strength is not graded here.

Test [1] addresses livin (UniProt P04386). Kind of test: yeast two-hybrid, peptide in trxA scaffold.
In test [2] the target is livin (UniProt P04386). Kind of test: yeast two-hybrid, linear peptide on Gal4 activation domain.

Take ASLRLYPIGGTVPFGRTGAG (peptide, not shown: large carriers) [SEQ ID NO 12]: in the test with livin [1], the binding result is recorded as “binds”.

Turning to GPQPFCSPPSFYTRLLIIVRLLSLDLQRSSNRRY (peptide, not shown: large carriers) [SEQ ID NO 47], the binding entry with livin [2] is recorded as “binds”.

Consider HSRPALCMVSLRWARSLWIV (peptide, not shown: large carriers) [SEQ ID NO 19], for which, in the test with livin [1], the binding result is recorded as “binds”.

Turning to APPISGRWRGLYMRSRFVSL (peptide, not shown: large carriers) [SEQ ID NO 26], the binding result with livin [1] is recorded as “binds”.

B1: peptide number 65 (peptide, not shown: large carriers)
chain: GAGLGRVIRLRIVVLRCIFLLFRVLRSAEIYES
notes: that construct is not described for linear peptides
For the molecule B1, the binding result in the test with livin [2] is recorded as “binds”.

On to EFRVRVLGCMGVFLRLRFCGGLRLRVLRSAEIYES (peptide, not shown: large carriers) [SEQ ID NO 86], for which the binding entry with livin [2] is “binds”.

LLAWRVQQSRPLPYLHIAFI (peptide, not shown: large carriers) [SEQ ID NO 23]: the binding entry with livin [1] is listed as “binds”.

Turning to IPWAPPMYFADSNV (peptide, not shown: large carriers) [SEQ ID NO 16], in the test with livin [1], the binding entry is “binds”.

In the case of EFGVRMRLMIRIFRGLFVLRGFRGLVLRSAEIYES (peptide, not shown: large carriers) [SEQ ID NO 67], the binding result with livin [2] is listed as “binds”.

For the molecule GPLPSGAVSTEAYFWEVFKLLMGP (peptide, not shown: large carriers) [SEQ ID NO 83], the binding result in the test with livin [2] is reported as “binds”.

As to EFGSGCGCFVRGRIVRIRCVILLLRVLRSAEIYES (peptide, not shown: large carriers) [SEQ ID NO 50], the binding result with livin [2] is given as “binds”.

On to ACWALWSLFRQDLLLVITFD (peptide, not shown: large carriers) [SEQ ID NO 14], for which the binding result with livin [1] is on record as “binds”.

Regarding GPLHRTLLVDMCCWLMSLESNMGP (peptide, not shown: large carriers) [SEQ ID NO 55], in the test with livin [2], the binding entry is “binds”.

Take GPNSWVWRYVTIAHWLANYRMSGP (peptide, not shown: large carriers) [SEQ ID NO 65]: the binding result with livin [2] is reported as “binds”.

Take EFRVRRMRLLVRLMGSDDSGTIPDFGP (peptide, not shown: large carriers) [SEQ ID NO 45]: in the test with livin [2], the binding result is given as “binds”.

Turning to VRLFIVCIIICCLMLLVG (peptide, not shown: large carriers) [SEQ ID NO 27], the binding result with livin [1] is listed as “binds”.

Regarding EFVRECSLCRVMVLMFVLRGIRLRVLRSAEIYES (peptide, not shown: large carriers) [SEQ ID NO 57], in the test with livin [2], the binding result is “binds”.

Take WLGTFSGTCSTAFYFPLGVP (peptide, not shown: large carriers) [SEQ ID NO 1]: the binding result with livin [1] was “binds”.

Take GPSNDNQLVLRVRILRVLIVMRVLRSAEIYES (peptide, not shown: large carriers) [SEQ ID NO 44]: in the test with livin [2], the binding entry is “binds”.

Turning to GPCEPFIGDCWPCLIRTLVTLRGLDL (peptide, not shown: large carriers) [SEQ ID NO 69], in the test with livin [2], the binding result is listed as “binds”.

In the case of EFGSGWYVDLGDYSVWVDYVYCGSGSLDLQRSSNRRY (peptide, not shown: large carriers) [SEQ ID NO 61], the binding entry with livin [2] is listed as “binds”.

For the molecule GPESYVLWPARGEALYYLRAWLGP (peptide, not shown: large carriers) [SEQ ID NO 78], in the test with livin [2], the binding entry is recorded as “binds”.

Take GPVPSSPCSFLLYCRDVLCHWPGP (peptide, not shown: large carriers) [SEQ ID NO 68]: in the test with livin [2], the binding entry is recorded as “binds”.

GPAMKSCTIRVFRVCIVLRIVRVLRSAEIYES (peptide, not shown: large carriers) [SEQ ID NO 66]: in the test with livin [2], the binding entry is recorded as “binds”.

In the case of GPVECADVLFASRIRLLCLCFRVLRSAEIYES (peptide, not shown: large carriers) [SEQ ID NO 73], the binding entry in the test with livin [2] was “binds”.

In the case of EFGSGLVSGRGIIVRRMLFLRVLLWVLRSAEIYES (peptide, not shown: large carriers) [SEQ ID NO 39], the binding result with livin [2] was “binds”.

Consider EFRVRIIVVSLRIWRLLVRRRCLCLVLRSAEIYES (peptide, not shown: large carriers) [SEQ ID NO 72], for which, in the test with livin [2], the binding result is given as “binds”.

For the molecule EFGVRVVCVVRSLFVLRCGLLRCRGVLRSAEIYES (peptide, not shown: large carriers) [SEQ ID NO 56], the binding result in the test with livin [2] is listed as “binds”.

Consider EFGRRLLVFRLSVFVVVLGRRLSRVLRSAEIYES (peptide, not shown: large carriers) [SEQ ID NO 74], for which the binding entry in the test with livin [2] is reported as “binds”.

On to GPFENWRVEELARGRYRMHGDVVLRSAEIYES (peptide, not shown: large carriers) [SEQ ID NO 40], for which, in the test with livin [2], the binding result is “binds”.

In the case of GPHPVLAVQLINAYLGLERVGRGP (peptide, not shown: large carriers) [SEQ ID NO 82], the binding result in the test with livin [2] is “binds”.

Regarding GPSQCAQRVALIQMYIDALVCIGP (peptide, not shown: large carriers) [SEQ ID NO 62], the binding entry in the test with livin [2] is “binds”.

Consider MMDSA (peptide, not shown: large carriers) [SEQ ID NO 11], for which the binding result in the test with livin [1] is reported as “binds”.

On to EFGSGLCVRRWWGMSVGSRIMLVMLVLRSAEIYES (peptide, not shown: large carriers) [SEQ ID NO 52], for which the binding entry with livin [2] is on record as “binds”.

B2: peptide number 54 (peptide, not shown: large carriers)
chain: GPWWKDRGVLVRLCVLRLVVGVVLRSAEIYES
notes: Mammalian two-hybrid construct not described for linear peptides
In the case of B2, the binding entry in the test with livin [2] was “binds”.

Consider PPPLTGRWSRQCVSVFGIVH (peptide, not shown: large carriers) [SEQ ID NO 24], for which the binding entry in the test with livin [1] was “binds”.

For the molecule GPIDCIIFLLWYSRQQRGGSRGGP (peptide, not shown: large carriers) [SEQ ID NO 41], in the test with livin [2], the binding entry is given as “binds”.

B3: peptide number 7 (peptide, not shown: large carriers)
chain: GPFKRCHERLVAFARCWFMWSMVLRSAEIYES
notes: as for B1
Consider B3, for which the binding entry in the test with livin [2] is given as “binds”.

B4: peptide number 5 (peptide, not shown: large carriers)
chain: GSRFRVFVCSLFSFLSGRGGGVVVLRSAEIYES
notes: as for B1
In the case of B4, the binding entry in the test with livin [2] is listed as “binds”.

As to GPSLQFLEVVVSCYMVLYDLSKGP (peptide, not shown: large carriers) [SEQ ID NO 46], the binding result in the test with livin [2] is recorded as “binds”.

As for GPVYSEAFVCLVCAGVCVEECGGSLDLQRSSNRRY (peptide, not shown: large carriers) [SEQ ID NO 53], in the test with livin [2], the binding result is on record as “binds”.

In the case of GPDVHIWQSIIFYAMRHMMGP (peptide, not shown: large carriers) [SEQ ID NO 49], in the test with livin [2], the binding result is recorded as “binds”.

B5: peptide number 69 (peptide, not shown: large carriers)
chain: GPFPFDYPRWIMIVLLRGVLRSAEIYES
notes: as for B1
Turning to B5, in the test with livin [2], the binding result is given as “binds”.

As for GSRGLRLCLLGRCRLCGCLIIMRVLRSAEIYES (peptide, not shown: large carriers) [SEQ ID NO 77], the binding result with livin [2] is listed as “binds”.

On to GPAPLSLCVCKCGCGHTRPFVGP (peptide, not shown: large carriers) [SEQ ID NO 48], for which the binding entry in the test with livin [2] is “binds”.

B6: peptide number 77 (peptide, not shown: large carriers)
chain: GPFSEHARGHVVTICRLRLLFWLLRSAEIYES
notes: as for B1
On to B6, for which, in the test with livin [2], the binding entry was “binds”.

B7: peptide number 75 (peptide, not shown: large carriers)
chain: GSRCIRRRISILFFVFRVLRSRRVLRSAEIYES
notes: as for B1
Turning to B7, the binding result with livin [2] is “binds”.

Turning to GPSSLLRRCLILGMVLGVLRRRVLRSAEIYES (peptide, not shown: large carriers) [SEQ ID NO 81], in the test with livin [2], the binding result is reported as “binds”.

B8: peptide number 16 (peptide, not shown: large carriers)
chain: GPHSSAHDRIWLRVRGLRIILLVLRSAEIYES
notes: as for B1
Consider B8, for which, in the test with livin [2], the binding result is “binds”.

Regarding GPIETVGFIVRLHTLLMVLRRTGP (peptide, not shown: large carriers) [SEQ ID NO 54], in the test with livin [2], the binding entry is listed as “binds”.

Consider EFGVRLLVLLRLRCVRRGGGCFVCWVLRSAEIYES (peptide, not shown: large carriers) [SEQ ID NO 58], for which the binding entry with livin [2] is given as “binds”.

Take GSGFRMRVLVMVCRLRVVFLVRRVLRSAEIYES (peptide, not shown: large carriers) [SEQ ID NO 59]: the binding result with livin [2] was “binds”.

On to GPVGVEGVDSVFGWCVVCFLLVWSLDLQRSSNRRY (peptide, not shown: large carriers) [SEQ ID NO 85], for which the binding result with livin [2] is listed as “binds”.

Consider GRLGWLRLLCVRIVLVCLRRGLVLRSAEIYES (peptide, not shown: large carriers) [SEQ ID NO 60], for which the binding entry with livin [2] is recorded as “binds”.

On to GPLLDPMLRQRFSLRVWIMLLGVLRSAEIYES (peptide, not shown: large carriers) [SEQ ID NO 64], for which the binding entry in the test with livin [2] was “binds”.

B9: peptide number 90 (peptide, not shown: large carriers)
chain: GPYPYLRILLVQKIACVRRALWVLRSAEIYES
notes: as for B1
Turning to B9, the binding entry with livin [2] is “binds”.

As for CWIHRAWMLSWHGVWSLTLV (peptide, not shown: large carriers) [SEQ ID NO 25], in the test with livin [1], the binding entry is “binds”.

On to DSAPGERYFVDFLGVSFACVWSVQNDRPDSG (peptide, not shown: large carriers) [SEQ ID NO 15], for which the binding entry with livin [1] is recorded as “binds”.

The values above are taken from patent US20050203288A1 (DEUTSCHES KREBSFORSCHUNGSZENTRUM STIFUNG DES OFFENTLICHEN …, published 2005).
